This passage reports cell number change and AC50 results from PubChem BioAssay AID2685 (National Center for Advancing Translational Sciences (NCATS), 2010).

The other results are listed elsewhere or left out. Shown are side measurements of this screen, not its main read-out; they come without a call. Compounds called inactive in the main read-out are mostly missing here. Words in brackets tell the shape of the fitted curve; partial curves, single points and poor fits give uncertain potencies.

What is called AC50 is the concentration at which the activity in the assay is half-maximal. Read a low AC50 as activity at low concentration.

This assay in a line: qHTS Assay for Lipid Storage Modulators in Drosophila S3 Cells.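 On cell number change: cells counted by Cell Tracker Red CMTPX staining in the red channel.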 The following applies: BODIPY lipid droplet fluorescence, 18-24 h; for cell number change: measured here: cell count max response, cells fed with added oleic acid. In short, it runs like this: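 Drosophila S3 cells loaded with oleic acid (400 uM, as added) and compounds at several concentrations; lipid droplets imaged by 488-nm laser-scanning cytometry, 500–530 nm intensity and object ratio to cell channel. Percent activity normalized to 20 uM Triacsin C.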
(In general: In qHTS, concentration-response curves come from the screen itself.)

The mark [1] stands for this setting: measured here: lipid fluorescence (Fed channel) AC50, cells fed with added oleic acid.
Setting [2] is: measured here: cell number channel AC50, cells fed with added oleic acid.

`CCOc1ccc(NC(=O)c2csc3c2CCCC3)cc1`: the cell number change came out at 26.4%. Also, the AC50 under setting [1] is 10300 nM [rising, partial curve].

Turning to `N=c1sccn1CC(=O)Nc1ccccc1Cc1ccccc1`, the cell number change was -4.38%.

`COc1ccccc1-c1nnc(SCC(=O)c2c(N)n(C3CC3)c(=O)[nH]c2=O)n1C`: the cell number change is -3.82%.

On to `Cc1ccc(S(=O)(=O)NCC(C)NS(C)(=O)=O)cc1` (centres undefined), for which the cell number change was -65.4%. The AC50 under setting [2] was 16400 nM [falling, single point].

`O=C(O)c1cnc(-c2ccccc2)nc1-c1ccccc1`: the cell number change is -5.29%.

For `Cc1noc(C)c1COc1ccccc1C(=O)N(C)CC(=O)Nc1ccc(F)c(F)c1F`, the cell number change is 20.3%. Moreover, under setting [1], the AC50 was 82 nM [rising, full curve, poor fit].

For `O=C(Nc1ccc(-c2nc3ccccc3s2)cc1)C1=COCCO1`, the cell number change stood at 1.63%. For the same compound, the half-maximal activity concentration (AC50) under setting [1] is 29100 nM [rising, single point].

On to `CC(O)CCC(=O)NCCNC(=O)CCC(C)O` (centres undefined), for which the cell number change was -30.3%. Moreover, under setting [2], the AC50 was 1640 nM [falling, single point]. Besides, the AC50 under setting [1] was 731 nM [falling, partial curve].

Regarding `Fc1ccc(N2CCN(Cc3cnc(Cl)s3)CC2)cc1`, the cell number change is 13.8%. Moreover, under setting [2], the AC50 is 7310 nM [falling, partial curve, poor fit]. Also, under setting [1], the AC50 is 231 nM [falling, partial curve].

Take `CCCn1c(SCc2cc(=O)oc3ccc4ccccc4c23)n[nH]c1=O`: the cell number change was -13.5%.

Consider `CCNc1nc(NCC)nc(Nn2cnnc2)n1`, for which the cell number change was found to be 15%. Also, the AC50 under setting [1] is 116 nM [falling, full curve, poor fit].

`COC(=O)CCN(c1ccccc1)S(=O)(=O)c1ccc(OC)cc1`: the cell number change stood at 0.278%. Further, the AC50 under setting [2] was 651 nM [falling, full curve, poor fit]. Moreover, under setting [1], the AC50 is 4110 nM [falling, single point].

With `Cc1nc2ccc(Br)cc2c2c1CC(CBr)O2` (centres undefined), the cell number change was -35.4%. For the same compound, the concentration at half-maximal activity (AC50) under setting [2] is 16400 nM [falling, single point].

Take `CCOc1cc2c(C#N)c(N3CCOCC3)nc(N)c2c(N)n1`: the cell number change is -39.4%. Besides, the AC50 under setting [2] is 5.8 nM [falling, full curve, poor fit]. For the same compound, under setting [1], the AC50 is 651 nM [falling, single point].

Regarding `O=C(Cn1nc(Cl)nc1Cl)c1ccccc1`, the cell number change is 5.83%.

For `COc1ccc(S(=O)(=O)Nc2c(C)n(C)n(-c3ccccc3)c2=O)c(Cl)c1Cl`, the cell number change was 5.47%. Besides, the AC50 under setting [1] was 29100 nM [rising, single point].

Consider `Cn1c(=O)cc(-c2ccccc2)c2ccccc21`, for which the concentration at half-maximal activity (AC50) under setting [2] was 6510 nM [rising, single point].

In the case of `COc1ccc(OCc2cc(C(=O)NC3CCc4ccccc43)no2)c(Cl)c1` (centres undefined), the cell number change was -11.6%. The half-maximal activity concentration (AC50) under setting [1] is 580 nM [falling, single point].
